These are yes or no findings as the source states them, for the method shown. In cells and extracts the contact can be indirect. These calls come from enrichment with a bait or labelling near it, and not all partners need be listed.
Target: H3K4me1 peptide (C-terminal biotin-tagged 19 amino acid N-terminal peptide of histone H3, mono-methylated on Lys 4) (UniProt P68431)
Assay: affinity purification with mass spectrometry; biotin-tagged H3 peptides incubated with nuclear extract of SW1990 cells, captured on streptavidin agarose, SDS-PAGE with silver staining, bands excised for electrospray-ion trap tandem mass spectrometry; only the target purified

By UniProt entry, the sequences of proteins in these tests, tags left out.
UniProt P50579: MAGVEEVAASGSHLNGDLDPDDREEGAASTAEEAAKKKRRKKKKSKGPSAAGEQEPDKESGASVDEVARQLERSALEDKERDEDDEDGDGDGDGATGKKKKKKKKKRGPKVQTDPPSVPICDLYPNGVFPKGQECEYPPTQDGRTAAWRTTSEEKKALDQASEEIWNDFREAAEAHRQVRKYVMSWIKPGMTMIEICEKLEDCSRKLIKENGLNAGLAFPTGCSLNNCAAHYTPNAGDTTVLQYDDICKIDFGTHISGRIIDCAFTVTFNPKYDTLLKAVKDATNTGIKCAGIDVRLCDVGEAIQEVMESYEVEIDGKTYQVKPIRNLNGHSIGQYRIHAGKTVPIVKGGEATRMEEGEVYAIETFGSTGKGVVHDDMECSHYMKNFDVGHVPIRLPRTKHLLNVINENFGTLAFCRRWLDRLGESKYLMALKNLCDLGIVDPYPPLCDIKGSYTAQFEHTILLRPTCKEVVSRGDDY

binding: binds
Substance: METAP2 (from UniProt P50579 1-478)

Source: PMC10787067, “EBF2 Links KMT2D‐Mediated H3K4me1 to Suppress Pancreatic Cancer Progression via Upregulating KLLN” (Advanced Science, 2023)
